This note sets out measurements from PubChem BioAssay AID485290 (National Center for Advancing Translational Sciences (NCATS), 2010).

By UniProt entry, the sequences of proteins in these tests, tags left out.
UniProt Q9NUW8, whole entry, looked up: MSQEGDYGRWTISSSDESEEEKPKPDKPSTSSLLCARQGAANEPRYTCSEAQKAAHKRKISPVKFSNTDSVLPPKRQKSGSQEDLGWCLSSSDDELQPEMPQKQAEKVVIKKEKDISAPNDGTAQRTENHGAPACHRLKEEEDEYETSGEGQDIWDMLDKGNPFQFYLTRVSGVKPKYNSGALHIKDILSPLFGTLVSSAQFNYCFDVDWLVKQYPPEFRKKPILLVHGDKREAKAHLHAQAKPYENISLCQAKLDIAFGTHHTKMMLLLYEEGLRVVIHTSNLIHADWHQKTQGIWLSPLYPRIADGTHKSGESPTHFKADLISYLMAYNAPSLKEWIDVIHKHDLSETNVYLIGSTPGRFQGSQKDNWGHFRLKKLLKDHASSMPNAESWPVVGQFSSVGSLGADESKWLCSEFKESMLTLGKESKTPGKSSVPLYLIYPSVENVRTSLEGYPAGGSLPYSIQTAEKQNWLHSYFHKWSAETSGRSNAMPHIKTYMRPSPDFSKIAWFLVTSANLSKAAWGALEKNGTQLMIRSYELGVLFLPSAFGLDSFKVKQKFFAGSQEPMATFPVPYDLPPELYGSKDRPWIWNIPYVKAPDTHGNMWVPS

What follows is the remainder of the data, with few or none of the hits. Active and inactive are the calls of the source. The call rests on the fitted dose curve; in most records, active means well fitted inhibition curve with a large enough effect; inconclusive means small, poorly fitted or top-dose-only effect; inactive means no such curve, though single readings can be large or run the other way.

For the experiment, the target named is Tyrosyl-DNA phosphodiesterase 1 (Homo sapiens) (UniProt Q9NUW8). Briefly: qHTS Assay for Inhibitors of Tyrosyl-DNA Phosphodiesterase (TDP1). Further: nearly all actives have a fitted effect of over 40% in size. Particulars: recombinant TDP1, AlphaScreen DNA substrate cleavage. From the text:
NIH Molecular Libraries Probe Production Network [MLPCN]
NIH Chemical Genomics Center [NCGC]
Assay Provider: Yves Pommier and Christophe Marchand, National Cancer Institute
Assay Title: qHTS Assay for Inhibitors of Tyrosyl-DNA Phosphodiesterase (TDP1); further: nearly all actives have a fitted effect of over 40% in size
Human tyrosyl-DNA phosphodiesterase I (Tdp1) is a rational anticancer target because this enzyme is involved in the repair of DNA lesions created by the trapping of human DNA topoisomerase I (Top1) following treatment by anticancer agents such as camptothecins. Recombinant Tdp1 was expressed and purified from E. coli in the laboratory (Anthony et al, Nucleic Acids Research, 2007, Vol. 35, 4474-4484). A Tdp1 DNA substrate bearing a 5' biotin and a 3' phospho-tyrosine was obtained by custom synthesis. This oligonucleotidic DNA substrate was subsequently coupled to a fluorescein isothiocyanate (FITC) group via the free amino group present on the phospho-tyrosine. Tdp1 was screened against the NCGC small molecule library using the AlphaScreen (AS) detection method in which a streptavidin donor AS bead is bound at the 5' end and an anti-FITC AS acceptor bead is bound at the 3' end of the DNA oligonucleotidic substrate. In the presence of Tdp1, the enzyme cleaves the tyrosine-FITC group, leaving a 3' end phosphate on the DNA substrate. This cleavage reaction results in a loss of signal in AS.
[1] 3 ul of buffer is dispensed in columns 3 & 4 as negative control (no enzyme and maximum signal),
[2] 3 ul of enzyme (1 nM final) is dispensed in columns 1,2, 5-48,
[3] 1 ul of substrate (15 nM final) is dispensed throughout the plate,
[4] 1 ul of AS donor/acceptor bead mix (10 ug/ml final) is dispensed throughout the plate
3 ul of Tdp1 enzyme is dispensed to 1536-well Kalypsys black solid bottom plates. Compounds and controls (23 nl) are transferred via Kalypsys Pin Tool. The plates are incubated for 15 min at room temperature, and then 1 ul of substrate is added to start the reaction. After 5 min incubation at room temperature, 1 ul of AS donor/acceptor bead mix is added and the plates are further incubated for 10 min at room temperature. The detection is then performed on a PerkinElmer Envision reader.
A general note: qHTS replaces the single test concentration by a dilution series.
On the % scale 0 is the no-effect control and ±100 the full control effect.

In the case of `CN1C2CCC1CC(OC(=O)C(O)c1ccccc1)C2` (centres undefined), the activity change, negative = inhibition (at 56.1 µM (top of the series)) is inactive: -11.9%.

For `CN1[C@@H]2CC[C@H]1CC(OC(=O)[C@@H](O)c1ccccc1)C2` (some centres undefined), the activity change, negative = inhibition by setting is: (at 21 µM (top of the series)) inactive: 13.3%; (at 130 µM (top of the series)) inactive: 6.38%.

As to `O=C1NC(=O)c2c1c(-c1ccccc1)cc1[nH]c3ccc(O)cc3c21`, the activity change, negative = inhibition (at 130 µM (top of the series)) is inactive: 23.3%.
